Patent EP4847032A1, “USE OF PEPTIDE AS THERAPEUTIC AGENT FOR DEGENERATIVE BRAIN DISEASES” (dated 2026)
The structures given here were assigned with low confidence; some may be wrong.

Columns and labels:
[1] = test system: 5xFAD mice; test: Sharp-wave ripples (SWRs) analysis in hippocampus of Alzheimer's disease mouse model; conditions: 100 mg/kg subcutaneous twice per week, 2 months, compared with 5xFAD(Vehicle)
Experimental: (§1) Specifically, as illustrated in the schematic diagram of Fig. 8, saline or KINE-101 synthesized in < Example 1> at a dose of 100 mg/kg was subcutaneously administered twice per week for a total of 2 months to 4-month-old 5xFAD mice induced by amyloid beta. In addition, normal littermate mice of the 5xFAD mice were used as a normal control group and were subcutaneously administered saline in the same manner.
In addition, the replay mechanism, which is strengthened for the conversion of place cells into long-term memory, is observed in the form of sequential burst activation of hippocampal neurons when experimental animals cease exploration. Such phenomena are referred to as sharp waves (1-50 Hz) and ripples (125-250 Hz) according to the signal pattern, and collectively designated as sharp-wave ripples (SWRs). In order to determine whether administration of KINE-101 restores spatial memory formation ability in an Alzheimer's disease mouse model, the occurrence frequency and intensity of SWRs were comparatively analyzed. SWRs were determined by continuously measuring electrophysiological signals through electrodes implanted in the hippocampus, followed by measuring the occurrence frequency (events/s) and intensity (µV^2) when signals within predetermined frequency ranges (sharp waves: 1-50 Hz; ripples: 125-250 Hz) exceeded the threshold value (4-fold the standard deviation) (Fig. 16).

[2] = test system: human microglia (hMG); test: CD86/CD206 marker staining of microglia cultured under an Alzheimer's disease environment; conditions: hMG with 1 µM oligomeric Aβ and 10 ng/mL IFNγ; KINE-101 1, 5, 10, 100 or 500 ng/mL; Fig. 2
Experimental: (§2) Specifically, as illustrated in the schematic diagram of Fig. 1, an Alzheimer's disease environment, which is the major cause of dementia, was established by treating cultured human microglia (hMG) with 1 µM oligomeric amyloid beta protein (Aβ), known to be a causative factor of Alzheimer's disease, and 10 ng/mL interferon-gamma (IFNγ), an inflammatory substance. Under these conditions, KINE-101 prepared in <Example 1> was treated at concentrations of 1, 5, 10, 100, or 500 ng/mL. After two days, the culture medium was replaced and the same treatment was repeated.
After an additional two days, in order to investigate whether the state of the microglia had shifted from a pro-inflammatory state (M1) to an anti-inflammatory state (M2), the cells were fixed using a fixative, and stained with antibodies against CD86, a marker of the pro-inflammatory state of microglia, and CD206, a marker of the anti-inflammatory state, followed by staining with fluorescence-labeled secondary antibodies. Images were obtained using a fluorescence microscope, and fluorescence signals were quantified using a software program to compare the degree of transition from the pro-inflammatory state to the anti-inflammatory state induced by KINE-101 (Fig. 2).

[3] = test system: 5xFAD mice; test: Amyloid beta protein deposited in brain tissues of Alzheimer's disease mouse model; conditions: 4 weeks, 4-month-old 5xFAD mice, Fig. 7
Experimental: Specifically, the amyloid beta-induced Alzheimer's disease mouse model, 5xFAD mice, was obtained from Jackson Laboratory. This Alzheimer's disease mouse model is known to overexpress human amyloid beta protein, which undergoes extracellular oligomerization and is ultimately deposited as insoluble protein aggregates, thereby damaging neurons and causing dementia. Accordingly, KINE-101 synthesized in < Example 1> was administered intravenously through the tail vein of 4-month-old 5xFAD mice induced by amyloid beta at doses of 50 or 100 mg/kg, twice per week. After 4 weeks, brain tissues were sectioned into thin slices using a vibratome, and amyloid beta protein was probed using an antibody labeled with fluorescence (FITC dye). Images were obtained using a fluorescence microscope (Fig. 7A), and the amount of amyloid beta protein deposited in the brain tissues was quantified using Cytation5 software (Fig. 7B).

[4] = test system: human microglia (hMG); test: Intracellular nitric oxide (NO) staining in microglia under an Alzheimer's disease environment; conditions: hMG with 1 µM oligomeric Aβ and 10 ng/mL IFNγ; KINE-101 1, 5, 10, 100 or 500 ng/mL; Fig. 3
Experimental: as §2
In addition, in order to evaluate the reduction of inflammatory substances by KINE-101, nitric oxide (NO), an inflammatory substance involved in the progression of Alzheimer's disease and present intracellularly, was stained with Difluorofluorescein-FM diacetate, and images were obtained using a fluorescence microscope. The intensity of the fluorescence signal was quantified and analyzed using a software program to confirm the degree of NO reduction induced by KINE-101 (Fig. 3).

[5] = test system: 5xFAD mice; test: Long-term potentiation (LTP) measurement in hippocampus of Alzheimer's disease mouse model; conditions: 100 mg/kg subcutaneous twice per week, 2 months; compared with 5xFAD(Vehicle); Fig. 15
Experimental: as §1
Specifically, long-term potentiation (LTP) was measured by electrophysiological analysis using the mouse model of Example <4-2>. LTP was determined by comparing the amplitude of population-spikes (pop-spikes) before (baseline) and 25 minutes after application of theta burst stimulation (TBS), which is a short-term high-frequency stimulus. For LTP measurement, the mice were anesthetized, and electrical signals, namely population-spikes (pop-spikes), were induced in the hippocampus of the anesthetized mice (Fig. 15).

[6] = test system: human microglia (hMG); test: Microglial phagocytosis: intracellularly internalized amyloid beta (pH-sensitive red fluorescence); conditions: hMG with 1 µM oligomeric Aβ and 10 ng/mL IFNγ; KINE-101 1, 5, 10, 100 or 500 ng/mL; Fig. 4
Experimental: as §2
Further, in order to investigate the degree of enhancement of microglial phagocytosis by KINE-101, intracellularly internalized amyloid beta protein was quantified. […] Red fluorescence images were obtained using a fluorescence microscope and quantified and compared using a software program (Fig. 4).

[7] = test system: 5xFAD mice; test: Object Location Test (OLT) in Alzheimer's disease mouse model; conditions: 100 mg/kg subcutaneous twice per week, 2 months; compared with 5xFAD(Vehicle); Fig. 14
Experimental: as §1
Further, in order to determine whether spatial memory, which is a representative cognitive impairment observed in Alzheimer's disease patients, was improved, an Object Location Test (OLT) was performed. Similar to NORT, OLT allows experimental animals to explore two objects; however, instead of replacing one object with a novel object, only the location of one of the existing objects is changed, as shown in Fig. 11. This test method evaluates whether exploration time for the new location increases by inducing reorganization of place cells in the hippocampus as a result of object relocation in experimental animals with innate exploratory behavior. A discrimination index was calculated according to the following equation (Fig. 14): Discrimination Index = time spent exploring the relocated object location / (time spent exploring the relocated object location + time spent exploring the unchanged object location).

[8] = Blood-brain barrier (BBB) permeability in mice, bio-imaging of FITC-labeled peptide; conditions: FITC-labeled KINE-101, 20 mg/kg intravenous (tail vein), 8-week-old male C57BL/6 mice; Fig. 6
Experimental: Specifically, as illustrated in the schematic diagram of Fig. 5, KINE-101 labeled with fluorescence (FITC) was intravenously administered at 20 mg/kg into the tail vein of 8-week-old male C57BL/6 mice, and fluorescence signals detected in the brain were monitored over time using a bio-imaging system (Fig. 6).

[9] = test system: C57BL/6 mice; test: Y-maze test in scopolamine-induced dementia mouse model; conditions: scopolamine I.P. 1 mg/kg, Fig. 17C
Excerpt: Specifically, scopolamine is a competitive antagonist that interferes with the binding of the neurotransmitter acetylcholine to acetylcholine receptors expressed in neurons, and is known to induce cognitive impairment, including learning and memory deficits, when administered to animals. In particular, scopolamine is known to activate microglia, thereby increasing inflammatory cytokines and oxidative stress and causing neuronal damage. In addition, the Y-maze test is a behavioral test designed based on the high exploratory tendency of mice toward novel environments and is used to evaluate working memory in animals (Fig. 17A). Accordingly, as illustrated in the schematic diagram of Fig. 17B, 8-week-old male C57BL/6 mice were divided into four groups, and KINE-101 (experimental group) or PBS (negative control group) was administered to each group by subcutaneous injection twice per week for 2 weeks under the conditions shown in Table 2. Four days later, scopolamine was administered by intraperitoneal injection. Thirty minutes after scopolamine administration, the mice were placed in a Y-shaped maze, and the sequence of movement through each arm during a 5-minute period was recorded. The percentage of spontaneous alternation (% Alternation) was quantified by calculating the number of entries into different arms (Fig. 17C).

[10] = test system: 5xFAD mice; test: Elevated Plus Maze behavioral test in Alzheimer's disease mouse model; conditions: 100 mg/kg subcutaneous twice per week, 2 months; compared with 5xFAD(Vehicle); Fig. 12
Experimental: as §1
After completion of administration, an Elevated Plus Maze behavioral test was performed to evaluate anxiety-related behavior using an elevated cross-shaped maze, as shown in Fig. 9. The Elevated Plus Maze apparatus used in this experiment was designed to be positioned 40 cm above the floor surface, and among the four arms, two opposing arms were configured as closed arms with walls, while the remaining two arms were configured as open arms without walls. […] The duration of stay in each arm was recorded by video for 5 minutes, and anxiety-related behavior was quantitatively compared by analyzing the time spent in the open arms without protective walls (Fig. 12).

[11] = test system: 5xFAD mice; test: Novel Object Recognition Test (NORT) in Alzheimer's disease mouse model; conditions: 100 mg/kg subcutaneous twice per week, 2 months; compared with 5xFAD(Vehicle); Fig. 13
Experimental: as §1
In addition, in order to investigate whether KINE-101 can improve memory-related cognitive impairment, a Novel Object Recognition Test (NORT) was performed to evaluate object recognition memory. NORT is a test method based on the tendency of experimental animals with innate exploratory behaviorto show greater interest in and spend more time investigating novel objects. […] Thereafter, one of the objects was replaced with a novel object, and the time spent by the animals in remembering the previously encountered object and exploring the novel object was measured. In addition, a discrimination index was calculated according to the following equation (Fig. 13): Discrimination Index = time spent exploring the novel object / (time spent exploring the novel object + time spent exploring the familiar object).

O=C(N[C@@H](CO)C(=O)N1CCC[C@H]1C(=O)N1CCC[C@H]1C(=O)N[C@@H](CO)C(=O)N1CCC[C@H]1C(=O)N1CCC[C@H]1C(=O)N[C@@H](CO)C(=O)N1CCC[C@H]1C(=O)O)[C@@H]1CCCN1
occurrence frequency of SWRs ([1]; Fig. 16B): increased
intensity of SWRs ([1]; Fig. 16C): increased
CD86, a marker of the pro-inflammatory state of microglia [2]: concentration-dependently decreased
CD206, a marker of the anti-inflammatory state [2]: increasing
amyloid beta protein in the brain tissues ([3]; 50 mg/kg intravenous twice per week): somewhat reduced
reduction of amyloid beta protein in the brain tissues ([3]; 100 mg/kg intravenous twice per week): ≥ 60%
NO, an inflammatory substance produced in microglia [4]: concentration-dependently reduced
LTP (pop-spike amplitude before and 25 minutes after theta burst stimulation) [5]: increased LTP
intracellular transport of amyloid beta in microglia [6]: increased in a concentration-dependent manner
exploration of the relocated object location (OLT) [7]: explored the new location to which the object had been moved for a longer period of time
time after administration at which fluorescence signals were first observed in the brain region [8]: 10 s
time for which the fluorescence signal in the brain was maintained [8]: 2 h
time of the strongest fluorescence signal in the brain [8]: 10 min
spontaneous alternation ratio (% Alternation) ([9]; KINE-101 100 mg/kg S.C. twice per week for 2 weeks): comparable to that of the positive control group
spontaneous alternation ratio (% Alternation) ([9]; KINE-101 50 or 100 mg/kg S.C. twice per week for 2 weeks, versus Vehicle (PBS)): statistically significantly increased
duration of stay in the open arms [10]: significantly shorter
exploration of the novel object (NORT) [11]: explored the novel object for a longer period of time
